≈ marks a conversion by molar mass, not a printed value. Not every detail of the peptide structures is certain; ends, links or a residue may be inferred. *1 amine or outer side, *2 acyl side, *3 side chain or, on linkers, in order; H or OH if unused. Where a SMILES comes first, the peptide text is derived from it. [ ]: non-standard residue; d: D form. X1 = O=C(C(N[*:1])c1cc(O)cc(O)c1)[*:2]; Hpg = N[CH](C(=O)O)c1ccc(O)cc1
Key:
Assay in all cases: serial dilution test, minimum inhibitory concentration
Assay type in all cases: cell-based
S. aureus 9 Tub = system: S. aureus 9 Tub
S. aureus 701 E = system: S. aureus 701 E
S. aureus 8236 = conditions: S. aureus 8236, serial dilution test
S. epidermidis 763 = conditions: S. epidermidis 763, serial dilution test
S. aureus FH 1982 = conditions: S. aureus FH 1982, serial dilution test
S. epidermidis ZH 2C = system: S. epidermidis ZH 2C
S. aureus 503 = conditions: S. aureus 503, serial dilution test
S. pyogenes 77A = system: S. pyogenes 77A
S. epidermidis 799 = conditions: S. epidermidis 799, serial dilution test
S. aureus SG 511 = conditions: S. aureus SG 511, serial dilution test
S. aureus 285 = conditions: S. aureus 285, serial dilution test
S. pyogenes 308A = system: S. pyogenes 308A

Q: Which results are given for CC(C)C(NC(=O)C(NC(=O)C(N)c1ccc(O)cc1)c1cc(O)cc(O)c1)C(=O)NC(C(=O)NC(C(=O)NC(C(=O)NC(C(=O)NC(C(=O)NC(C(=O)NC(C(=O)NC(C(=O)NC(Cc1ccccc1)C(=O)NC(CC(=O)O)C(=O)O)c1ccc(O)cc1)c1cc(O)cc(O)c1)C(C)C)c1cc(O)cc(O)c1)c1ccc(O)cc1)c1cc(O)cc(O)c1)c1ccc(O)cc1)c1cc(O)cc(O)c1 (stereo not drawn) [feglymycin] (H-[Hpg][X1]V[X1][Hpg][X1][Hpg][X1]V[X1][Hpg]FD-OH; configuration not given here)?
A: Minimum inhibitory concentration (S. aureus 9 Tub): 64 µg/mL (≈ 33.7 µM); Minimum inhibitory concentration (S. aureus 701 E): 64 µg/mL (≈ 33.7 µM); Minimum inhibitory concentration (S. aureus 8236): 64 µg/mL (≈ 33.7 µM); Minimum inhibitory concentration (S. epidermidis 763): 64 µg/mL (≈ 33.7 µM); Minimum inhibitory concentration (S. aureus FH 1982): 64 µg/mL (≈ 33.7 µM); Minimum inhibitory concentration (S. epidermidis ZH 2C): 64 µg/mL (≈ 33.7 µM); Minimum inhibitory concentration (S. aureus 503): 32 µg/mL (≈ 16.8 µM); Minimum inhibitory concentration (S. pyogenes 77A): 32 µg/mL (≈ 16.8 µM); Minimum inhibitory concentration (S. epidermidis 799): 64 µg/mL (≈ 33.7 µM); Minimum inhibitory concentration (S. aureus SG 511): 64 µg/mL (≈ 33.7 µM); Minimum inhibitory concentration (S. aureus 285): 64 µg/mL (≈ 33.7 µM); Minimum inhibitory concentration (S. pyogenes 308A): 32 µg/mL (≈ 16.8 µM)

Reference: US5891851A, “Antibiotic, feglymycin, processes for its preparation and its use” (Hoechst Aktiengesellschaft, priority 1996, dated 1999)
